Test results from patent US20230159931A1, “TARGETING THE PALMOTYLATION/DEPALMOTYLATION CYCLE TO TREAT INFLAMMATORY DISEASES” (CORNELL UNIVERSITY, priority 2020, published 2023).
These are yes or no findings as the source states them, for the method shown. Some entries that bind do so weakly or less than the wild type.

Protein sequences, listed by entry. Tags and fused reporters are not part of them. Lines headed by an entry give the natural chain unless they say otherwise; changes in a name come on top.
UniProt P40763, whole entry: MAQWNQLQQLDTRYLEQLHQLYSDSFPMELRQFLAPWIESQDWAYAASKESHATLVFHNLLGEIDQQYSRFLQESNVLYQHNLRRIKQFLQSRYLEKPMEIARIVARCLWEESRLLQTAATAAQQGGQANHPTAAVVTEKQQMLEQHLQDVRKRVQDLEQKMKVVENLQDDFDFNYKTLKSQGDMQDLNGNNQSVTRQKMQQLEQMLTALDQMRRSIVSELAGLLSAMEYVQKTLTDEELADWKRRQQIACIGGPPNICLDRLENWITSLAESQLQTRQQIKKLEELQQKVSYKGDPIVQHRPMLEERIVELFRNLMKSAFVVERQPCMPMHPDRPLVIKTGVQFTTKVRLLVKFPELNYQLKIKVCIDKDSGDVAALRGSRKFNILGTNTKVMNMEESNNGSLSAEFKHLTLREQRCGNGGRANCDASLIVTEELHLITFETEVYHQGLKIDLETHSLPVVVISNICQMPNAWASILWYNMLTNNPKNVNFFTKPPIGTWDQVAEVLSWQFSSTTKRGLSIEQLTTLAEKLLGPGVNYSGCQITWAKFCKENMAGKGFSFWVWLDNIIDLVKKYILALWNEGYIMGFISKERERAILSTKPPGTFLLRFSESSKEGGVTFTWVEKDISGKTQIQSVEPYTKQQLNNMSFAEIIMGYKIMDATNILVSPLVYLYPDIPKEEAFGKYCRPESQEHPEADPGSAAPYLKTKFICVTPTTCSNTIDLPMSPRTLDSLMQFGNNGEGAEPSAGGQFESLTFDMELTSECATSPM

Target: Haemagglutinin (HA)-tagged STAT3 (UniProt P40763)
Assay: association of tagged proteins co-expressed in HEK293T cells

Q: Which binding does the source give for “APT2(C2S) (from UniProt Q9WTL7 1-231) (enzyme)” here?
A: binds
